# Measured values taken from PubChem BioAssay (EPA / NIEHS).
# Where “and” joins values, the source holds several entries; their conditions need not be identical. Identical values can stand only once. Inconclusive means that the source gave no clear call. Such entries were picked first, then a sample of the others. Potencies beside an inconclusive call are fits to weak or partial responses and may not hold up. Calls of active or inactive are those of the source. The calls were made as follows: active = hit-call score of the fitted dose curve at least 0.9, where 1 is the maximum; inconclusive = response in the unintended direction; inactive = score below 0.9.
# Test: Tanguay_ZF_120hpf_JAW_legacy: (Legacy) Oregon State University Tanguay Lab 120 Hour Post-fertilization zebrafish Assay for Jaw Malformation (AID 2283638);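 as to AC50: active means more embryos with jaw malformation than DMSO controls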
# Protocol: Tanguay_ZF_120hpf_legacy is a whole embryo, multiplexed endpoint assay using zebrafish larvae exposed for 120 hours post fertilization on a 96-well plate.Tanguay_ZF_120hpf_JAW_legacy is one of one assay component(s) measured or calculated from the Tanguay_ZF_120hpf_legacy assay. It is designed to make measurements of zebrafish development as detected with brightfield microscopy of developing zebrafish embryos.Data from the assay component Tanguay_ZF_120hpf_JAW_legacy was analyzed into 1 assay endpoints. This assay endpoint, Tanguay_ZF_120hpf_JAW_legacy, was analyzed in the positive analysis fitting direction relative to DMSO as the negative control and baseline of activity. Using a type of morphology reporter, gain-of-signal activity can be used to understand changes in developmentals as they relate to the whole embryo. To generalize the intended target to other relatable targets, this assay endpoint is annotated to the zebrafish development intended target family, where the subfamily is embryonic jaw development.
# Zebrafish husbandry: Tropical 5D wild-type adult zebrafish were housed in at an approximate density of 1000 per 100 gallon tank at the Sinnhuber Aquatic Research Laboratory, Oregon State University, Corvallis, OR. Each tank was kept at standard laboratory conditions of 28C on a 14-h light/10-h dark photoperiod in fish water consisting of reverse osmosis water supplemented with a commercially available salt (Instant Ocean). Spawning funnels were placed into the tanks the night prior, and embryos were collected and staged. To increase bioavailability, the chorion was enzymatically removed using pronase (63.6mg/ml, >/= 3.5U/mg, Sigma-Aldrich: P5147) at 4 hours post fertilization (hpf) using a custom automated dechorionator.Chemical exposures: Six hpf dechorionated embryos were placed 1 embryo per well in a 96-well plate prefilled with 90 ul of EM using automated embryo placement systems (AEPS). Ten microliters of each row of dilution plate 2 was added to 2 exposure plates. The final DMSO concentration used was 0.64% (vol/vol). Thirty-two embryos were also exposed to 5uM trimethyltin chloride (positive control). Plates were sealed to prevent evaporation and foil covered to reduce light exposure and kept in a 28C incubator. Embryos were statically exposed until 120 hpf. At 24 hpf, embryos were assessed for photomotor response using a custom photomotor response analysis tool (PRAT) and for developmental toxicity endpoints (MO24: mortality at 24 hpf, DP: developmental progression, SM: spontaneous movement, and NC: notochord distortion). At 120 hpf, locomotor activity was measured using Viewpoint Zebralab and assessed for 18 endpoints. Zebrafish acquisition and analysis program (ZAAP), a custom program designed to inventory, acquire, and manage zebrafish data, was used to collect developmental endpoints as either present or absent (i.e., binary responses were recorded). If mortality occurred for an embryo (at either 24 or 120 hpf), the non-mortality endpoints were not measured.
SMILES,outcome,AC50
CCCN(CCC)c1c([N+](=O)[O-])cc(C(F)(F)F)c(N)c1[N+](=O)[O-],inactive,–
CCCCCCC(C=O)=Cc1ccccc1,inactive,–
CCCOC(=O)NCCCN(C)C,inactive,–
CC(CO)OC(C)CO (centres undefined) (tested in a mixture with another compound),–,inconclusive: 202 µM
CC[C@H](C)C(=O)O[C@H]1C[C@H](O)C=C2C=C[C@H](C)[C@H](CC[C@@H](O)C[C@@H](O)CC(=O)O)[C@H]21,inactive,–
Oc1ccc(C(c2ccc(O)cc2)C(Cl)(Cl)Cl)cc1,–,active: 117 µM
CC(C)NCC(O)c1ccc(O)c(O)c1 (centres undefined),inactive,–
CCOC(=O)C(C)(C)Oc1ccc(Cl)cc1,–,inconclusive: 12.8 µM
CC1=CC(=O)CC(C)(C)C1,–,inconclusive: 202 µM
CN1C(=O)N(c2ccccc2Br)Cc2cnc(Nc3ccc4c(c3)OCC(CO)O4)nc21 (centres undefined),–,active: 0.972 µM
CC/C(=C(\c1ccccc1)c1ccc(OCCN(C)C)cc1)c1ccccc1,–,inconclusive: 169 nM and inconclusive: 175 µM
CCCCOC(=O)CCCCC(=O)OCCCC,–,inconclusive: 1.24 µM
O=C(CCCN1CCC(O)(c2ccc(Cl)cc2)CC1)c1ccc(F)cc1,–,active: 5.66 µM
S=C(S)NCCNC(=S)S.[Mn+2].[S-]C([S-])=NCCN=C([S-])[S-].[Zn+2],–,inconclusive: 2.56 µM
Oc1ccccc1O,–,inconclusive: 1.28 µM
CCCC(=O)O,–,inconclusive: 202 µM
CC(O)CO (centres undefined),–,inconclusive: 202 µM
CCCCC=O,–,active: 38.8 µM
CCCCCCC(C)OC(=O)COc1nc(F)c(Cl)c(N)c1Cl (centres undefined),–,inconclusive: 1.71 µM
